From publication PMC3781304 (American Journal of Cardiovascular Drugs, 2013)
“Also recorded” adds a separate entry of the source. Read-outs that look alike come from different tables or passages of the source.

Key:
[1] = Atorvastatin drug-drug interaction study: edoxaban pharmacokinetics
[2] = Amiodarone drug-drug interaction study: edoxaban pharmacokinetics

Effect of coadministration on edoxaban exposure/PK (in words) [1]	SMILES	Effect of coadministration on edoxaban exposure/PK (in words) ([1]; listed as atorvastatin)	Effect of coadministration on edoxaban exposure (in words) [2]
did not significantly affect exposure	CC(C)c1c(C(=O)Nc2ccccc2)c(-c2ccccc2)c(-c2ccc(F)cc2)n1CC[C@@H](O)C[C@@H](O)CC(=O)O [Atorvastatin, atorvastatin]	minimal effects; also recorded: relatively minor effects	–
–	CCCCc1oc2ccccc2c1C(=O)c1cc(I)c(OCCN(CC)CC)c(I)c1 [Amiodarone, amiodarone]	–	Modest/minimal effects; also recorded: did not significantly affect exposure
